Test results published in patent US8722690B2, “Mesoionic pesticides” (E I du Pont de Nemours and Company, priority 2009, dated 2014).
Structures can show the parent of a compound that is named as a salt. Where two headings read alike, the source gives them in different places. Some results were stated once for a whole list of compounds, not compound by compound. At least one structure is not confirmed: it was looked up by name or label, or the drawing left a doubt.

What was measured:
Assay type in all cases: in vivo
[1] = test system: fall armyworm (Spodoptera frugiperda); assay: Test B: control of fall armyworm on maize plant, foliar spray; details: very good to excellent levels of control efficacy
[2] = test system: potato leafhopper (Empoasca fabae); details: 6 days, Soleil bean plant, very good to excellent levels of control efficacy
[3] = test system: cotton melon aphid (Aphis gossypii); assay: Test D: control of cotton melon aphid on cotton plant, contact and/or systemic
Source text: For evaluating control of cotton melon aphid (Aphis gossypii) through contact and/or systemic means, the test unit consisted of a small open container with a 6-7-day-old cotton plant inside. This was pre-infested with 30-40 insects on a piece of leaf according to the cut-leaf method described for Test C, and the soil of the test unit was covered with a layer of sand.
Test compounds were formulated and sprayed at 50 ppm and/or 10 ppm as described for Test C. The applications were replicated three times. After spraying, the test units were maintained in a growth chamber and then visually rated as described for Test C.

[4] = test system: green peach aphid (Myzus persicae); details: 6 days, radish plant
Source text: For evaluating control of green peach aphid (Myzus persicae) through contact and/or systemic means, the test unit consisted of a small open container with a 12-15-day-old radish plant inside. This was pre-infested by placing on a leaf of the test plant 30-40 aphids on a piece of leaf excised from a culture plant (cut-leaf method). The aphids moved onto the test plant as the leaf piece desiccated. After pre-infestation, the soil of the test unit was covered with a layer of sand.
Test compounds were formulated and sprayed at 50 ppm and/or 10 ppm as described for Test A. The applications were replicated three times. After spraying of the formulated test compound, each test unit was allowed to dry for 1 h and then a black, screened cap was placed on top. The test units were held for 6 days in a growth chamber at 19-21° C. and 50-70% relative humidity. Each test unit was then visually assessed for insect mortality.

[5] = test system: corn planthopper (Peregrinus maidis); details: 6 days, maize plant, very good to excellent levels of control efficacy
Description: For evaluating control of corn planthopper (Peregrinus maidis) through contact and/or systemic means, the test unit consisted of a small open container with a 3-4-day-old maize plant (spike) inside. White sand was added to the top of the soil prior to application. Test compounds were formulated and sprayed at 50 ppm and/or 10 ppm, and replicated three times as described for Test A. After spraying, the test units were allowed to dry for 1 h before they were post-infested with ˜15-20 nymphs (18 to 21 day old) by sprinkling them onto the sand with a salt shaker. A black, screened cap was placed on the top of each test unit, and the test units were held for 6 days in a growth chamber at 22-24° C. and 50-70% relative humidity. Each test unit was then visually assessed for insect mortality.

[6] = test system: diamondback moth (Plutella xylostella); assay: Test A: control of diamondback moth on radish plant, foliar spray; details: 6 days, very good to excellent levels of control efficacy
[7] = test system: Western Flower Thrips (Frankliniella occidentalis); assay: Test G: control of Western Flower Thrips on Soleil bean plant, contact and/or systemic; details: sprayed at 250 ppm, 7 days, very good to excellent levels of control efficacy

Row | Compound | control efficacy: feeding damage (40% or less feeding damage and/or 100% mortality) ([1]; sprayed at 10 ppm) [%] | control efficacy: feeding damage (40% or less feeding damage and/or 100% mortality) ([1]; sprayed at 50 ppm) [%] | control efficacy: mortality ([2]; sprayed at 10 ppm) [%] | control efficacy: mortality ([2]; sprayed at 50 ppm) [%] | mortality ([3]; sprayed at 50 ppm) | mortality ([4]; sprayed at 10 ppm) | mortality ([4]; sprayed at 50 ppm) | control efficacy: mortality ([5]; sprayed at 10 ppm) [%] | control efficacy: mortality ([5]; sprayed at 50 ppm) [%] | control efficacy: feeding damage (40% or less feeding damage and/or 100% mortality) ([6]; sprayed at 10 ppm) [%] | control efficacy: feeding damage (40% or less feeding damage and/or 100% mortality) ([6]; sprayed at 50 ppm) [%] | mortality ([3]; sprayed at 10 ppm) | control efficacy: plant damage (30% or less plant damage and/or 100% mortality) [7] [%]
1 | Cc1cccn2c(=O)c(-c3ccccc3F)c([O-])[n+](Cc3cnc(Cl)s3)c12 [Compound 30, 1-[(2-chloro-5-thiazolyl)methyl]-3-(2-fluorophenyl)-2-hydroxy-9-methyl-4-oxo-4H-pyrido[1,2-a]pyrimidinium Inner Salt] | ≤ 40 | ≤ 40 | ≥ 80 | ≥ 80 | at least 80% | at least 80% | at least 80% | ≥ 80 | ≥ 80 | ≤ 40 | ≤ 40 | – | –
2 | Cc1cccn2c(=O)c(-c3cc(Cl)cc(OC(F)(F)F)c3)c([O-])[n+](Cc3cnc(Cl)s3)c12 [Compound 36, 1-[(2-chloro-5-thiazolyl)methyl]-3-[3-chloro-5-(trifluoromethoxy)phenyl]-2-hydroxy-9-methyl-4-oxo-4H-pyrido[1,2-a]pyrimidinium inner salt] | ≤ 40 | ≤ 40 | ≥ 80 | ≥ 80 | at least 80% | at least 80% | at least 80% | ≥ 80 | ≥ 80 | ≤ 40 | ≤ 40 | – | –
3 | Cc1cccn2c(=O)c(-c3cccc(SC(F)(F)F)c3)c([O-])[n+](Cc3cnc(Cl)s3)c12 [Compound 40, 1-[(2-chloro-5-thiazolyl)methyl]-2-hydroxy-9-methyl-4-oxo-3-[3-[(trifluoromethyl)thio]phenyl]-4H-pyrido[1,2-a]pyrimidinium inner salt] | ≤ 40 | ≤ 40 | ≥ 80 | ≥ 80 | at least 80% | – | at least 80% | – | ≥ 80 | ≤ 40 | ≤ 40 | – | –
4 | COc1ccc(OC(F)(F)F)cc1-c1c([O-])[n+](Cc2cnc(Cl)s2)c2c(C)cccn2c1=O [Compound 53, 1-[(2-chloro-5-thiazolyl)methyl]-2-hydroxy-3-[2-methoxy-5-(trifluoromethoxy)phenyl]-9-methyl-4-oxo-4H-pyrido[1,2-a]pyrimidinium inner salt] | ≤ 40 | ≤ 40 | ≥ 80 | ≥ 80 | at least 80% | at least 80% | at least 80% | ≥ 80 | ≥ 80 | ≤ 40 | ≤ 40 | at least 80% | –
5 | COc1ccccc1-c1c([O-])[n+](Cc2cnc(Cl)s2)c2c(C)cccn2c1=O [Compound 56, 1-[(2-chloro-5-thiazolyl)methyl]-2-hydroxy-3-(2-methoxyphenyl)-9-methyl-4-oxo-4H-pyrido[1,2-a]pyrimidinium inner salt] | – | ≤ 40 | ≥ 80 | ≥ 80 | – | – | at least 80% | ≥ 80 | ≥ 80 | ≤ 40 | ≤ 40 | – | ≤ 30
